Measured values taken from paper PMC12244503.
Results are given in words; binding and its absence hold for the method and conditions named. Binding seen in cells or lysates may run through a third protein. Some results given as binding are weak or reduced against the parent protein; the word gives no strength.

Sequences of proteins named here, by UniProt entry; tags and fusion partners are left off. A change or cut given only in a name is not applied to a line headed by its entry.
UniProt P02745: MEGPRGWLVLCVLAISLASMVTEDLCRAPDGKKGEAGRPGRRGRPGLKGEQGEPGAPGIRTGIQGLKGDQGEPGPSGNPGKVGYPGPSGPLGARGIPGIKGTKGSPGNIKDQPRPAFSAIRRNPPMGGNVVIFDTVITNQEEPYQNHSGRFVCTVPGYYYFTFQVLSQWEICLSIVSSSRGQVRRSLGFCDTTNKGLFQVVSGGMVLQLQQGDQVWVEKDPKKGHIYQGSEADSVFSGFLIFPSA
UniProt P02746: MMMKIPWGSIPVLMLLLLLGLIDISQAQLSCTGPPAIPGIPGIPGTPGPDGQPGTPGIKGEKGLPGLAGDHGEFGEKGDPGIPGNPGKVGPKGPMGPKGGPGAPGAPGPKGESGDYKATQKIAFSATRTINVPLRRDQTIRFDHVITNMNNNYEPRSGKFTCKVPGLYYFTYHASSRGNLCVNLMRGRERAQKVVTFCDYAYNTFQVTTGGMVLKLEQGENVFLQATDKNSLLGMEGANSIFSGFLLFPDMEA
UniProt P02747: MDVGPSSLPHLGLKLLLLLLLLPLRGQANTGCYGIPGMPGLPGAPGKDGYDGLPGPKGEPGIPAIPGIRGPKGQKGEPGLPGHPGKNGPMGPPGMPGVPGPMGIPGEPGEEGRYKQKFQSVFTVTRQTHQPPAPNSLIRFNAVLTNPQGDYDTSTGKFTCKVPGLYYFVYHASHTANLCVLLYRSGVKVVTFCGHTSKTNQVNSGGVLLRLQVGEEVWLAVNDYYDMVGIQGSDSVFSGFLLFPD
UniProt Q13304: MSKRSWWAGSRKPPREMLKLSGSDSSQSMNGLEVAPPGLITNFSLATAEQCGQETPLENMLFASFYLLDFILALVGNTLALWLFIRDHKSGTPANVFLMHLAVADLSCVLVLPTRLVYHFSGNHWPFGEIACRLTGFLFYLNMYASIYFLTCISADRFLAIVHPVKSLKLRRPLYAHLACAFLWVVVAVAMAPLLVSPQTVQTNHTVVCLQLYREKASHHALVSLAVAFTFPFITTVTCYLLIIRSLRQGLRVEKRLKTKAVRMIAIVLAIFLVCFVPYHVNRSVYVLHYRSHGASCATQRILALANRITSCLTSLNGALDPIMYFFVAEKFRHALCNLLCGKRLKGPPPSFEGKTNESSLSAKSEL

Target: C1q protein purified from pooled normal human plasma (human) (UniProt P02745+P02746+P02747)
Test: co-IP; C666-1 cells treated with 1 ug/mL C1q for 4 h; membrane protein extract incubated with 1 ug antibody at 4 °C overnight, then protein A/G agarose for 2 h at 4 °C; SDS-PAGE and western blot; only the target purified

binding: binds
Substance: GPR17, a member of the G protein-coupled receptor (GPCR) family (from UniProt Q13304 1-367)
